# Reference: PubChem BioAssay AID638 (SRMLSC, 2007)
# In all, about 1,300 compounds went through this assay and about 65 (5%) were called active.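 How the source made its calls: active means growth inhibition reaching a set limit at one or more tested doses; inactive means the rest.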 Some of the results follow. Potency and affinity values are given separately.
# Experiment: wild-type E. coli BW25113 antibacterial activity – OD615, dose response (AID 638)
# Conditions: at 100 µM (top of the series) unless noted
# How it was run: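 Material – E. coli BW25113 wild type · Medium – Kanamycin-supplemented LB broth · Doses – compound dilution series for dose-response · Incubation – 20 h compound exposure, 37 °C · Technique – optical density (absorbance) at 615 nm · Read-out basis – IC50 from 4-parameter logistic, bounds fixed 0–100% · Control set – chloramphenicol at 30 µM final as inhibition control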
row,SMILES,growth inhibition
1,O=C(OC1CCc2ccccc2C1=O)c1ccccc1O (stereo not drawn),inactive: 9.44%
2,COc1cccc2sc(Nc3nc(-c4ccccn4)cs3)nc12,inactive: -6.38%
3,Cc1cccc(NC(=O)CSc2nnc(-c3cc(C)n(-c4ccccc4)c3C)o2)c1C,inactive: -5.48%
4,CCCCc1ccc(C2C(C#N)=C(N)SC(N)=C2C#N)s1,inactive: 11.2%
5,CCCc1[nH]nc2c1C(c1ccc(OC)c(CSC3=NCCS3)c1)C(C#N)=C(N)O2 (stereo not drawn),inactive: 3.91%
6,CCOc1ccc(S(=O)(=O)Nc2cccc(Cl)c2)cc1,active: 20%
7,COc1ccccc1N1CCN(C(=O)c2cc(-c3cccc(Cl)c3)on2)CC1,inactive: -5.12%
8,CCOc1cc(S(=O)(=O)N2CCN(Cc3ccccc3)CC2)ccc1Br,inactive: -2.34%
9,CCCCOC(=O)Nc1ccc(C(=O)OCCC)cc1,inactive: 6.71%
10,Cc1ccc(-n2c(C)cc(C3N=C(N)Nc4nc5ccccc5n43)c2C)c(C)c1 (stereo not drawn),inactive: -3.91%
11,CCOC(=O)C1CCN(C(c2cccnc2)c2c(NC(=O)c3ccco3)sc(C)c2C)CC1 (stereo not drawn),inactive: 0.02%
12,CCc1cc2c3c(c(=O)oc2cc1O)CCCC3,inactive: -5.58%
13,CCOc1cc(-c2c(C#N)c(N)nc3c2CCCC3C)ccc1O (stereo not drawn),inactive: 19.8%
14,O=C(Nc1cccc(C(F)(F)F)c1)N1CCC(c2nc(-c3ccc(F)cc3)no2)CC1,inactive: 7.9%
15,O=C(Nc1ccc(Cl)c(Cl)c1)OCc1cccnc1,inactive: 3.14%
16,CC1(C)Cc2c(sc3c2c(=N)n(Cc2ccco2)c(=O)n3Cc2ccc(Cl)cc2)CO1,inactive: 3.64%
17,CCCOc1ccc2oc(=O)c3c(c2c1)CCCN3C(=O)CN1CCc2ccccc2C1,inactive: 0.92%
18,CC1=C(C(=O)OCC(C)C)C(c2cc3c(cc2Br)OCO3)NC(=O)N1C (stereo not drawn),inactive: 12.5%
19,CCCCc1ccc(Nc2nc(CCC)cc(=O)[nH]2)cc1,inactive: -2.25%
20,CCCOC(=O)c1ccc(Oc2cn[nH]c2-c2ccc(OCC)cc2O)cc1,inactive: 8.01%

row,SMILES,growth inhibition
1,c1ccc(CN(Cc2ccco2)C(c2ccncc2)c2nnnn2C2CCCC2)cc1 (stereo not drawn),inactive: 6.5%
2,COc1cc(NS(=O)(=O)c2ccc(OC)c(C)c2C)c(OC)cc1Cl,inactive: -16.7%
3,CCOC(=O)c1c(CN2CCOCC2)n(-c2ccccc2)c2ccc(O)cc12,inactive: 4.11%
4,O=C(NCc1ccco1)C(C(=O)c1ccc(F)cc1)n1ccccc1=O (stereo not drawn),inactive: 12.3%
5,CC1CCc2c(C(=O)Oc3cccc(-n4cnnn4)c3)csc2C1 (stereo not drawn),inactive: -6.31%
6,CCCn1nnnc1NC(=O)CSc1ccc(Cl)cc1,inactive: 16.7%
7,CCCC(=O)c1ccc(N2CCCCCC2)c(F)c1,inactive: -2.91%
8,O=C1[C@H]2[C@@H](C(=O)N1c1cc(Cl)cc(Cl)c1)[C@]1(C(=O)Nc3ccccc31)N1CCC[C@@H]21,inactive: 9.3%
9,O=C(CSc1nnc2scc(-c3ccccc3)n12)Nc1nsc(-c2ccccc2)n1,inactive: -9.04%
10,COc1ccc(C(=O)Nn2cnc3scc(-c4cccs4)c3c2=O)c(O)c1,inactive: -5.59%
11,CC(C)C(C(=O)NCc1ccco1)N(C(=O)CNS(=O)(=O)c1ccc(Cl)cc1)C1CCCC1 (stereo not drawn),inactive: -7.52%
12,CCn1cc(C(=O)O)c(=O)c2cnc(N3CCN(C(=O)Nc4ccccc4)CC3)nc21,inactive: 5.93%
13,Cc1cc(N2CCCCC2)n2ncc(-c3ccccc3)c2n1,inactive: 4.48%
14,COc1ccc(CN(C(=O)CN2C(=O)C(C)Oc3ccccc32)C2CCCC2)c(OC)c1 (stereo not drawn),inactive: -6.33%
15,c1ccc(-n2nnnc2Oc2cccc3cccnc23)cc1,inactive: 2.63%
16,Cc1nn(-c2nc3ccccc3n2Cc2ccccc2)c2c1C(=O)CC(C)(C)C2,inactive: -12.2%
17,N#Cc1cn(CCOc2ccccc2F)c2ccccc12,inactive: -0.93%
18,O=C(Nc1nnc(-c2cccs2)o1)c1cccc(Oc2ccccc2)c1,inactive: 12.7%
19,Cc1cccc(-n2ncc3c(N4CC(C)CC(C)C4)ncnc32)c1 (stereo not drawn),inactive: -9.68%
20,c1coc(CN(Cc2cccs2)Cc2nnnn2C2CCCCC2)c1,inactive: 2.37%

# Arranged by number of heavy atoms (largest number first): 3 of the compounds above.
row,SMILES,growth inhibition
16,CC1(C)Cc2c(sc3c2c(=N)n(Cc2ccco2)c(=O)n3Cc2ccc(Cl)cc2)CO1,inactive: 3.64%
2,COc1cccc2sc(Nc3nc(-c4ccccn4)cs3)nc12,inactive: -6.38%
6,CCOc1ccc(S(=O)(=O)Nc2cccc(Cl)c2)cc1,active: 20%

# Later entries

row,SMILES,growth inhibition
1,CC1=C(C(=O)OC2CCCC2)C(c2ccc(C)o2)C2=C(CC(c3cccs3)CC2=O)N1 (stereo not drawn),inactive: -3.96%
2,COc1cc2cc(C(c3nnnn3C3CCCCC3)N(C)C3CCCCC3)c(=O)[nH]c2cc1OC (stereo not drawn),inactive: 0.95%
3,COc1ccc2nc(NC(=O)C3CCCN(S(=O)(=O)c4cccs4)C3)sc2c1 (stereo not drawn),inactive: -21.6%
4,COc1ccc(CN(C(=O)CN2C(=O)COc3ccccc32)C2CCCC2)c(OC)c1,inactive: 0.37%
5,CCCc1nc(SCC(=O)N2CCC(Cc3ccccc3)CC2)c2c(=O)n(C)c(=O)n(C)c2n1,inactive: -7.24%
6,CCCCn1c(N2CCC(Cc3ccccc3)CC2)nc2c1c(=O)[nH]c(=O)n2C,inactive: -1.49%
7,CC(C)n1c2ccccc2c2nc3ccccc3nc21,inactive: -6.19%
8,O=C(CSc1nnnn1C1CCCCC1)Nc1nc2c(s1)CCCC2,inactive: 5.16%
9,Cc1ccc(Cn2c(SCC(C)C)nc3c2c(=O)n(C)c(=O)n3C)cc1,inactive: 10.5%
10,CCn1c(N2CCN(C(=O)C34CC5CC(CC(C5)C3)C4)CC2)nc2ccccc21,inactive: 9.4%
11,O=S(=O)(NCCSc1ccc(Cl)cc1)c1ccc2c(c1)OCCO2,inactive: -0.01%
12,CC1CCN(S(=O)(=O)c2ccc(Cl)cc2Br)CC1,inactive: 15.1%
13,Cc1nn(-c2ccc(F)cc2)c2sc(C(=O)N3CCCCCC3)cc12,inactive: -8.97%
14,Cc1nn(-c2ccccc2)c2sc(C(=O)N(CC(=O)NC(C)(C)C)Cc3ccco3)cc12,inactive: -9.04%
15,CCCCCC(=O)Nc1ccccc1N1CCN(c2ccccc2)CC1,inactive: 1.05%
16,O=C1CC(O)(C(F)(F)F)Oc2c1ccc1ccccc21 (stereo not drawn),inactive: 16.7% [at 50 µM]
17,Cc1cc(N2C3CCC2CC(O)(c2ccc(F)cc2)C3)nc(-c2ccccc2)n1 (stereo not drawn),inactive: -4.92%
18,Cc1ccc(NC(=O)CN(C)S(=O)(=O)c2cccc3nsnc23)cc1Cl,inactive: -4.22%
